Results from the supplement of paper PMC10849652.
The other results are listed elsewhere or left out.

Sequences of proteins named here, by UniProt entry; tags and fusion partners are left off. A change or cut given only in a name is not applied to a line headed by its entry.
UniProt Q5T9A4: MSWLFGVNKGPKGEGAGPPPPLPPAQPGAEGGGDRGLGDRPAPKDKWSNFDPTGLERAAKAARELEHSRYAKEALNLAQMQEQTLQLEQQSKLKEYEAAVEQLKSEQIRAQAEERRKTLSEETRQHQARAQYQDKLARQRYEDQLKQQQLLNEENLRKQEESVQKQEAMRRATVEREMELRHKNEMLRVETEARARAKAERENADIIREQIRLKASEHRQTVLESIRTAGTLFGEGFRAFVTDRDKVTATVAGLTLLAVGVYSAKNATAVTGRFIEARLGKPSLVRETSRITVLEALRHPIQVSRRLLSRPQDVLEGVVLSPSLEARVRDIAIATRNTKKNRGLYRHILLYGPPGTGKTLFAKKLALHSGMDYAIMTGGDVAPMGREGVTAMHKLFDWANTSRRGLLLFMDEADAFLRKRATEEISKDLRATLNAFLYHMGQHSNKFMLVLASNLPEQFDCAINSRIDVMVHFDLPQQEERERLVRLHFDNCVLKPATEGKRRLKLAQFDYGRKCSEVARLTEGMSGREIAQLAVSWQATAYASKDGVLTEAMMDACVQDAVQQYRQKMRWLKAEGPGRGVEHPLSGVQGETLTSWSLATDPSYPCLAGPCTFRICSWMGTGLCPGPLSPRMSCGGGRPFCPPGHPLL
UniProt Q8WWM7: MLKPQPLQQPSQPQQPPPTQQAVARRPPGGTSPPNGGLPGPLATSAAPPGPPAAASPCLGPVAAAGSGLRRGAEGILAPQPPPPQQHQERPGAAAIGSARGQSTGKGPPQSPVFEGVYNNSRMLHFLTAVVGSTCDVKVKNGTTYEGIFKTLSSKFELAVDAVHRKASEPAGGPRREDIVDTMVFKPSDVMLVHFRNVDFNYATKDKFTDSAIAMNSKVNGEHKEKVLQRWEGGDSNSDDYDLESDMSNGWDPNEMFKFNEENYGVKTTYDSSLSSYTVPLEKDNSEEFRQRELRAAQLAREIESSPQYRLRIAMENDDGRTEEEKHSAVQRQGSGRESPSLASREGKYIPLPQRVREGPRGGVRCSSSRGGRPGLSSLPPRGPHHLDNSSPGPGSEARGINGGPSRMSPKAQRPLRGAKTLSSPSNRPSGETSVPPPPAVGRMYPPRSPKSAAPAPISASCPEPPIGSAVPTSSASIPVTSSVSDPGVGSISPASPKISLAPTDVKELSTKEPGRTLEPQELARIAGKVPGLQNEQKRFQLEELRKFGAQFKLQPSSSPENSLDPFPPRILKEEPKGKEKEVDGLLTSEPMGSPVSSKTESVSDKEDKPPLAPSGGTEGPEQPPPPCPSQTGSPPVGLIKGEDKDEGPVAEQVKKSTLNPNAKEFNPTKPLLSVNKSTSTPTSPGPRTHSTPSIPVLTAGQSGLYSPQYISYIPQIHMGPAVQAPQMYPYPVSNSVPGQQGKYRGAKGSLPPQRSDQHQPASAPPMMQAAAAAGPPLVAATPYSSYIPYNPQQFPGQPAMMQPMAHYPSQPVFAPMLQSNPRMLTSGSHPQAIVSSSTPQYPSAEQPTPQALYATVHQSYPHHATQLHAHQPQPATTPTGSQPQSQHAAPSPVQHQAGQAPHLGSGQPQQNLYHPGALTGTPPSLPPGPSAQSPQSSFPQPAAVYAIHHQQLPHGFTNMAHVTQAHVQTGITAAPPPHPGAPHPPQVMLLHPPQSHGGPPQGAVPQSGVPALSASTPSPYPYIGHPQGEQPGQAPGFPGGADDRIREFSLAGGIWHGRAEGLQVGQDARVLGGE
UniProt P24539: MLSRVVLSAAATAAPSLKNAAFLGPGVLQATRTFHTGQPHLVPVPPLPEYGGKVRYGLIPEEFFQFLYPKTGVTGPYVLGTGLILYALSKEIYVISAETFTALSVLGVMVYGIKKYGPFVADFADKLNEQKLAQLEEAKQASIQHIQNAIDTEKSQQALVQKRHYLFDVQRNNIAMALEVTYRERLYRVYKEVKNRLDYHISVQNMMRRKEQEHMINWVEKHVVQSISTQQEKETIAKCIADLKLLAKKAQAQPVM
UniProt P38606, whole entry, looked up: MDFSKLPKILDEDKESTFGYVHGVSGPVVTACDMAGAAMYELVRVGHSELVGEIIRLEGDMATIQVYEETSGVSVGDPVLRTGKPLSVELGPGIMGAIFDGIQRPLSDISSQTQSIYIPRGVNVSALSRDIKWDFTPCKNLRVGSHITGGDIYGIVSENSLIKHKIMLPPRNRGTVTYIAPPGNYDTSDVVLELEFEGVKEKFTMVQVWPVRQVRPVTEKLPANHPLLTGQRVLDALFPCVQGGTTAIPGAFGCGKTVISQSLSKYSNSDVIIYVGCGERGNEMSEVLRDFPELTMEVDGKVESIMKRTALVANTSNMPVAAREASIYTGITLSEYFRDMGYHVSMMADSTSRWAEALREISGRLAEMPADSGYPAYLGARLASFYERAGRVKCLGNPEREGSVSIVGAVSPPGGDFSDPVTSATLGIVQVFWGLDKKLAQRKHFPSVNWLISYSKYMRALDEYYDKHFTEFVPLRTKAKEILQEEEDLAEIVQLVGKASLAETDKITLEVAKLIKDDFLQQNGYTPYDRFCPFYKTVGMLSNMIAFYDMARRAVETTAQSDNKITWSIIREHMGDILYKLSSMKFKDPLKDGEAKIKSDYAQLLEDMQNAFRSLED
UniProt P56381: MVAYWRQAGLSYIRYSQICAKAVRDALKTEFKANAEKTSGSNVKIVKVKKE
UniProt Q9H6S1, whole entry, looked up: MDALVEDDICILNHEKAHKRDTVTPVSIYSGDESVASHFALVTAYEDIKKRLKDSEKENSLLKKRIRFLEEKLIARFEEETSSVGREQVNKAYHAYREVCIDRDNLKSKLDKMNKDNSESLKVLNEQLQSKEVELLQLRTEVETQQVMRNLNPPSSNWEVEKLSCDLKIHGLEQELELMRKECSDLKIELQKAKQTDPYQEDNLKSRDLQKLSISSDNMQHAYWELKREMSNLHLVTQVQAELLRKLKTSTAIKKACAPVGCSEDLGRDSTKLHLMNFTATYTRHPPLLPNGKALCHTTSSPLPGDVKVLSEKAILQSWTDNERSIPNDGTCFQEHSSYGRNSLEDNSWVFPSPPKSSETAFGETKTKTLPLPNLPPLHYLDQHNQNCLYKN
UniProt Q9NY97: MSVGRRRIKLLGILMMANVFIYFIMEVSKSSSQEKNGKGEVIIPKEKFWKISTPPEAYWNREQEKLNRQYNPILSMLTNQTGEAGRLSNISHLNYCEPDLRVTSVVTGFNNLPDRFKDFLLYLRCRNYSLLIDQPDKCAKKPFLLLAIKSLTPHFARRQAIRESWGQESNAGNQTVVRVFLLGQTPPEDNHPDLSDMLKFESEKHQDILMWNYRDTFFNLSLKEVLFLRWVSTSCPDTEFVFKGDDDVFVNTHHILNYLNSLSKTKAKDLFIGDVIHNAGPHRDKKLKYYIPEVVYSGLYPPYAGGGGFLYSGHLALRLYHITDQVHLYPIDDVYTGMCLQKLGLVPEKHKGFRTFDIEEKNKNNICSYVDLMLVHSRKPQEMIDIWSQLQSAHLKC
UniProt Q8NBU5: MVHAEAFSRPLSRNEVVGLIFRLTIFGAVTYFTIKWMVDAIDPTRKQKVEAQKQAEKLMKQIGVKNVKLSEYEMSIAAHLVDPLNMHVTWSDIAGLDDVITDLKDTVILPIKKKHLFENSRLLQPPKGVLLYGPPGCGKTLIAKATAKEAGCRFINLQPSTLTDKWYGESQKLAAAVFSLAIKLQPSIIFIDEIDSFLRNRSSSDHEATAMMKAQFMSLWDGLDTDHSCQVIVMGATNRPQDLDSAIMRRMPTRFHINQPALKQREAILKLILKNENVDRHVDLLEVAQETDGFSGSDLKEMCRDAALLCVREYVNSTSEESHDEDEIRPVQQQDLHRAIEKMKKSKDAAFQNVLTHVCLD

Experiments:
Test in all cases: log2 fold change, soluble protein after heating vs DMSO (PISA); higher = thermal stabilisation; K562 lysate, 10 uM; active = over 0.2 and 3.5 SD of the protein, either way, in both replicates (recomputed)
erlotinib = compound: C#Cc1cccc(Nc2ncnc3cc(OCCOC)c(OCCOC)cc23)c1 [erlotinib]
Method in brief: (§1)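 Quantification was by TMTpro 16plex LC-MS/MS with equalised channel sums, applied to the supernatant after 21,000xg for 90 min. Samples were crude K562 extract at 1 mg/mL protein in PBS pH 7.4 with 1 mM MgCl2, treated with 10 μM compound for 30 min, heated for 3 min across 48°C-58°C, pooled and brought to 0.5% NP-40 at 4°C. Values are log-two fold changes in thermal stability relative to solvent controls, from duplicates.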

[1] = compound: C/C(=N\NC(=O)C1=CC(=CC=C1)S(=O)(=O)N2CCOCC2)/C3=C(C=CC(=C3)Cl)O
Method in brief: as §1

[2] = compound: C1=CC(=CC=C1C2=NC3=C(N2)C=C(C=C3)C(=O)N)OC4=CC=C(C=C4)Cl
Method in brief: as §1

[3] = compound: C1=CC2=C(C=CC(=C2)/C=C\3/C(=O)NC(=NCC4=CC=CS4)S3)N=C1
Method in brief: as §1

[4] = compound: C1=CC2=NC=CN=C2C=C1/C=C/3\C(=O)NC(=O)S3
Method in brief: as §1

[5] = compound: C1=CC=C(C=C1)C2=NC(=C(N2)C3=CC=NC=C3)C4=CC(=C(C=C4)Cl)O
Method in brief: as §1

[6] = compound: C1=CC=C2C(=C1)C3=NNC4=CC=CC(=C43)C2=O
Method in brief: as §1

[7] = compound: C1CCN(C1)C(=O)NC2=CC=CC(=C2)NC3=NC=C(C(=N3)NCCC4=CN=CN4)Br
Method in brief: as §1

[8] = compound: C1CN(CCC1(CC2=CC=C(C=C2)Cl)N)C3=NC=NC4=C3C=CN4
Method in brief: as §1

IRAK-1-4 Inhibitor I = compound: C1COCCN1CCN2C3=CC=CC=C3N=C2NC(=O)C4=CC(=CC=C4)[N+](=O)[O-] [IRAK-1-4 Inhibitor I]
Method in brief: as §1

ibrutinib = compound: C=CC(=O)N1CCC[C@@H](n2nc(-c3ccc(Oc4ccccc4)cc3)c3c(N)ncnc32)C1 [ibrutinib]
Method in brief: as §1

[9] = compound: CC(=O)c1cnc2ccc(-c3cc(Cl)c(O)c(Cl)c3)nc2c1N[C@H]1CC[C@H](CN(C)C)CC1
Method in brief: as §1

ralimetinib = compound: CC(C)(C)Cn1c(N)nc2ccc(-c3[nH]c(C(C)(C)C)nc3-c3ccc(F)cc3)nc21 [ralimetinib]
Method in brief: as §1

[10] = compound: CC(C)(O)CC(=O)NCCn1ccc2ncnc(Nc3ccc(Oc4cccc(C(F)(F)F)c4)c(Cl)c3)c21
Method in brief: as §1

[11] = compound: CC(C)C1=C2N=C(C=C(N2N=C1)NCC3=CC=CC=C3)NCCCCCCN
Method in brief: as §1

[12] = compound: CC1=C(C(CC(=O)N1)C2=CC=C(C=C2)C(F)(F)F)C(=O)NC3=C(C=C4C(=C3)C=NN4)F
Method in brief: as §1

[13] = compound: CC1=C(C2=C(C=C1)C(=O)C3=CC=CC=C3N2CCCN)C
Method in brief: as §1

[14] = compound: CC1=C(C=C(C=C1)NC(=O)C2=CC(=CC=C2)C(C)(C)C#N)NC3=CC4=C(C=C3)N=CN(C4=O)C
Method in brief: as §1

[15] = compound: CC1=C(C=C(C=C1)NC(=O)C2=CC(=CC=C2)N(C)C)NC(=O)C3=CC=C(C=C3)O
Method in brief: as §1

[16] = compound: CC1=CC=C(C=C1)SC2=C3C=C(SC3=CN=C2)C(=O)N
Method in brief: as §1

Measured: log2 fold change

ATAD3B (UniProt Q5T9A4)
inactive: erlotinib -0.016 | [1] 0.031 | [2] -0.111 | [3] 0.029 | [4] 0.019 | [5] -0.017 | [6] 0.096 | [7] 0.018 | [8] -0.009 | IRAK-1-4 Inhibitor I 0.032 | ibrutinib -0.054 | [9] 0.018 | ralimetinib -0.027 | [10] -0.069 | [11] -0.012 | [12] -0.026 | [13] -0.028 | [14] -0.03 | [15] 0.045 | [16] 0.015

ATXN2L isoform 3 (UniProt Q8WWM7)
inactive: erlotinib -0.009 | [1] -0.011 | [2] 0.054 | [3] -0.017 | [4] -0.008 | [5] -0.011 | [6] -0.018 | [7] 0.006 | [8] 0.009 | IRAK-1-4 Inhibitor I 0.005 | ibrutinib -0.019 | [9] 0 | ralimetinib 0.001 | [10] -0.02 | [11] 0.003 | [12] 0.008 | [13] 0.012 | [14] -0.042 | [15] 0.02 | [16] -0.021

ATP5PB (UniProt P24539)
inactive: erlotinib -0.031 | [1] 0.012 | [2] -0.01 | [3] 0 | [4] 0.018 | [5] 0.005 | [6] 0.009 | [7] 0.012 | [8] 0.015 | IRAK-1-4 Inhibitor I 0 | ibrutinib -0.007 | [9] -0.031 | ralimetinib -0.036 | [10] 0.003 | [11] 0.005 | [12] -0.01 | [13] 0.006 | [14] -0.016 | [15] -0.005 | [16] 0.014

ATP6V1A (UniProt P38606)
inactive: erlotinib -0.01 | [1] -0.01 | [2] 0.002 | [3] -0.004 | [4] -0.005 | [5] 0.01 | [6] 0.028 | [7] -0.006 | [8] 0.003 | IRAK-1-4 Inhibitor I 0.02 | ibrutinib 0.034 | [9] 0.004 | ralimetinib -0.001 | [10] -0.007 | [11] -0.005 | [12] -0.017 | [13] 0.01 | [14] -0.034 | [15] -0.033 | [16] -0.005

ATP5F1E (UniProt P56381)
inactive: erlotinib -0.063 | [1] -0.044 | [2] 0.074 | [3] -0.006 | [4] -0.025 | [5] -0.019 | [6] -0.033 | [7] -0.046 | [8] -0.009 | IRAK-1-4 Inhibitor I -0.019 | ibrutinib -0.056 | [9] -0.042 | ralimetinib -0.071 | [10] 0.04 | [11] -0.011 | [12] -0.004 | [13] -0.014 | [14] 0.041 | [15] 0.004 | [16] -0.029

AZI2 (UniProt Q9H6S1)
inactive: erlotinib -0.022 | [1] -0.152 | [2] 0.048 | [3] -0.082 | [4] -0.126 | [5] 0.03 | [6] 0.07 | [7] 0.029 | [8] -0.059 | IRAK-1-4 Inhibitor I 0.03 | ibrutinib -0.16 | [9] 0.026 | ralimetinib 0.025 | [10] -0.079 | [11] -0.261 | [12] 0.058 | [13] -0.025 | [14] 0.151 | [15] 0.03 | [16] 0.028

B3GNT2 (UniProt Q9NY97)
inactive: erlotinib -0.169 | [1] -0.029 | [2] -0.028 | [3] 0.024 | [4] -0.042 | [5] 0.003 | [6] -0.048 | [7] 0.026 | [8] -0.023 | IRAK-1-4 Inhibitor I -0.049 | ibrutinib 0.021 | [9] 0.075 | ralimetinib -0.045 | [10] -0.07 | [11] -0.041 | [12] -0.017 | [13] -0.018 | [14] 0.088 | [15] -0.079 | [16] 0.021

ATAD1 (UniProt Q8NBU5)
inactive: erlotinib 0.004 | [1] 0.046 | [2] -0.016 | [3] 0.027 | [4] -0.059 | [5] -0.041 | [6] 0.004 | [7] -0.029 | [8] 0.015 | IRAK-1-4 Inhibitor I 0.063 | ibrutinib 0 | [9] 0.008 | ralimetinib 0.245 | [10] -0.059 | [11] 0.016 | [12] -0.165 | [13] -0.059 | [14] -0.003 | [15] -0.01 | [16] 0.03
